Laboratory results taken from PubChem BioAssay AID1439 (NMMLSC, 2008).
The campaign covered roughly 220,000 compounds. About 770 (0.35%) were called active. Inconclusive means that the source gave no clear call. Such entries were picked first, then a sample of the others. Cut-off read from the data, not from the text of the source: active = binding response below about 49% or above about 150%; inconclusive = no clear call, values can overlap the other calls; inactive = in between.

By UniProt entry, the sequences of proteins in these tests, tags left out.
UniProt P09471, whole entry, looked up: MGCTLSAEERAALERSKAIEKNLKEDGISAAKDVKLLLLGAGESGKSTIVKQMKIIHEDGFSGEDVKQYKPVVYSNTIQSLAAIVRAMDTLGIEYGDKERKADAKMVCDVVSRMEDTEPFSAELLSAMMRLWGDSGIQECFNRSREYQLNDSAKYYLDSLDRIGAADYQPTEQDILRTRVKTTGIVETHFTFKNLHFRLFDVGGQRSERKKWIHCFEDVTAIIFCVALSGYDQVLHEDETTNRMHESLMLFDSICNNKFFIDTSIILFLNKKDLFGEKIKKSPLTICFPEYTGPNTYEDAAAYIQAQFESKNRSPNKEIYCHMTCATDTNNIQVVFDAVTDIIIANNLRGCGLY

The compounds below were run against Guanine nucleotide-binding protein G(o) subunit alpha (Homo sapiens) (UniProt P09471) (assay: RGS7-Galphao binding modulators, primary screen, biochemical, multiplexed bead flow cytometry (AID 1439;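 note: fluorescent Galphao held in activated GDP-AlF4 state binding bead-coupled RGS7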)). Details: at 10 µM, actives lie on both sides.

Row | Structure (SMILES) | binding response (% of control)
1 | O=C(NC1=NN(c2ccccc2)CC1)Nc1ccccc1F | inconclusive: 115%
2 | CC(C)C(=O)NN(C(=O)C(C)C)c1nc2ccccc2s1 | inconclusive: 95.5%
3 | O=C(Nc1ccc(Br)c2ccccc12)c1ccc2ccccc2c1O | inconclusive: 78.8%
4 | C=C1CCN([C@@H](C)C(=O)OCc2cccc(C)c2)S(=O)(=O)c2ccccc21 | inconclusive: 106%
5 | O=C(Cn1nc(Cc2cccnc2)c2ccccc2c1=O)Nc1cc(F)ccc1F | inconclusive: 60%
6 | Cc1ccc(C(=O)Nc2nc(N)n(-c3ccccc3)n2)cc1 | inconclusive: 93.5%
7 | O=C(NC(Cc1ccccc1)C(=O)NC1CC1)OCc1ccccc1 (stereo not drawn) | inconclusive: 134%
8 | Cc1ccc(C(=O)NNC2=NCCC2)cc1 | inactive: 102%
9 | Nc1cc(S(=O)(=O)Nc2ccccc2Cl)ccc1N1CCCC1 | inconclusive: 67.4%
10 | COC(=O)c1cc(NS(=O)(=O)c2ccc(N3CCOCC3)c(N)c2)cc(C(=O)OC)c1 | inactive: 102%
11 | COc1cccc(/C=C2\CCc3ccccc3C2=O)c1 | inconclusive: 149%
12 | Cc1noc(C)c1CSc1ncnc2ccccc12 | inactive: 98.3%
13 | COc1ccccc1NS(=O)(=O)c1ccc(O)c(C(=O)OCC(=O)Nc2ccccc2F)c1 | inconclusive: 92.6%
14 | O=C(CSc1ccc(-c2ccccn2)nn1)Nc1nccs1 | inconclusive: 97.6%
15 | COC(=O)c1ccc(NC(=S)NC(=O)c2c(-c3ccccc3)noc2C)cc1 | inconclusive: 134%
16 | CCN(c1ccccc1)S(=O)(=O)c1ccc(Cl)c(NC(=O)CN(C)C2CCN(C)CC2)c1 | inconclusive: 63.6%
17 | NS(=O)(=O)c1ccc(N=Nc2ccc(=O)[nH]c2O)cc1 | inconclusive: 184%
18 | COc1ccc(CCNC(=O)COC(=O)C23CC4CC(CC(C4)C2)C3)cc1 | inactive: 90%
19 | COc1ccc(S(=O)(=O)N2C(=O)/C(=C3\SC(N)=NC3=O)c3ccccc32)cc1 | inconclusive: 126%
20 | CN(C)/C=N/C1=C(C#N)C(c2cccs2)c2ccc3ccccc3c2O1 (stereo not drawn) | inactive: 98.6%
21 | O=C(Nc1cccc(OCC(=O)N2CCOCC2)c1)c1cccc([N+](=O)[O-])c1 | inconclusive: 91.7%
22 | Cc1ccc(-c2nnc(Nc3ccc4c(c3)OCO4)c3ccccc23)cc1S(=O)(=O)NC(C)C | inactive: 89.8%
23 | CCCCn1c(SCC(=O)N2CC(C)CC(C)C2)nc2cc(S(N)(=O)=O)ccc21 (stereo not drawn) | inactive: 91.2%
24 | Cc1ccc(OC(=O)c2cc(C)nn2C(C)(C)C)cc1 | inconclusive: 80.1%

4 of these compounds in another layout.
Row,Structure (SMILES),binding response (% of control)
8,Cc1ccc(C(=O)NNC2=NCCC2)cc1,inactive: 102%
9,Nc1cc(S(=O)(=O)Nc2ccccc2Cl)ccc1N1CCCC1,inconclusive: 67.4%
21,O=C(Nc1cccc(OCC(=O)N2CCOCC2)c1)c1cccc([N+](=O)[O-])c1,inconclusive: 91.7%
24,Cc1ccc(OC(=O)c2cc(C)nn2C(C)(C)C)cc1,inconclusive: 80.1%

Gathered by group, the entries above containing a Cl atom
Row | Structure (SMILES) | binding response (% of control)
9 | Nc1cc(S(=O)(=O)Nc2ccccc2Cl)ccc1N1CCCC1 | inconclusive: 67.4%
16 | CCN(c1ccccc1)S(=O)(=O)c1ccc(Cl)c(NC(=O)CN(C)C2CCN(C)CC2)c1 | inconclusive: 63.6%

(further entries)

Row | Structure (SMILES) | binding response (% of control)
25 | COc1ccc2c(c1)c1ncn(CC3CCCO3)c(=O)c1n2C (stereo not drawn) | inconclusive: 57.4%
26 | CCOC(=O)c1c(C)[nH]c(C(=O)COC(=O)C2CC(=O)N(Cc3ccccc3)C2)c1C (stereo not drawn) | active: 218% [activator]
27 | O=C(CCS(=O)(=O)Cc1ccc(Cl)cc1)NCCc1ccccc1 | inactive: 103%
28 | O=C(O)c1cc(N/N=C/c2cccs2)ccc1Cl | inconclusive: 111%
29 | COCCNC(=O)C12CC3CC(CC(Cl)(C3)C1)C2 | inconclusive: 74.6%
30 | Oc1ccc(C=Nc2ccc3ncccc3c2)c(O)c1 | inactive: 117%
31 | Cc1ccc(S(=O)(=O)NCCc2nnc3ccc(SCC(=O)Nc4nc(C)cs4)nn23)cc1 | inactive: 99.2%
32 | O=C(O)c1ccc(N/N=C/c2ccnc3ccccc23)cc1 | inconclusive: 87.8%
33 | Cc1c(Br)c([N+](=O)[O-])nn1CC(=O)N(C)Cc1ccccc1 | inactive: 99.9%
34 | COC(=O)c1c(C)[nH]c(C=Nc2ccc(OC)cc2)c1C | inconclusive: 167%
35 | O=C(CN(CCO)c1ccccc1)Nc1ccc(Cl)c(S(=O)(=O)N2CCOCC2)c1 | inactive: 84.3%
36 | CC(=O)NCCn1c(SCc2cccc([N+](=O)[O-])c2)nc2ccccc2c1=O | inactive: 106%
37 | CCOC(=O)NC(=O)c1cn(Nc2ncc(C(F)(F)F)cc2Cl)c(=O)[nH]c1=O | inconclusive: 98.9%
38 | O=C(Cn1nnc(-c2cccs2)n1)NCc1cccs1 | inactive: 99.8%
39 | Fc1cccc(F)c1-n1c(CN2CCCC2)csc1=S | inconclusive: 96.2%
40 | Cc1onc(-c2c(Cl)cccc2Cl)c1C(=O)OCC(=O)c1ccccc1 | inconclusive: 61.9%
41 | O=C(O)C(=O)/C(=C\c1ccc([N+](=O)[O-])cc1)c1ccc2ccccc2n1 | inconclusive: 93.6%
42 | Cc1oc2ccccc2c1CNC(=O)N(C)C | inconclusive: 106%
43 | COc1ccc(-c2cn(-c3ccc(Cl)cc3)c3[n+]2CCCCC3)cc1 | inconclusive: 104%
44 | O=C(NCC(=O)N(c1cccnc1)C(C(=O)NC1CCCC1)c1ccco1)c1cccs1 (stereo not drawn) | inactive: 113%
45 | CCn1c(NCc2cc(Cl)ccc2O)nc2ccccc21 | inconclusive: 105%
46 | NS(=O)(=O)c1ccc(NC(=O)c2ccc(-c3ccccc3)cc2)cc1 | inactive: 100%
47 | N#CCc1cc2ccc3cccc4ccc(c1)c2c34 | inconclusive: 114%
48 | CCOC(=O)/C(C#N)=C/c1c[nH]c2ccccc12 | inconclusive: 116%

Row | Structure (SMILES) | binding response (% of control)
49 | CCOc1cc(/C=C2\SC(=S)N(C(C(=O)O)c3ccccc3)C2=O)ccc1O (stereo not drawn) | inconclusive: 133%
50 | O=c1cc(C(F)(F)F)[nH]c2ccc(C(F)(F)F)cc12 | inconclusive: 69.9%
51 | CCCNC(=S)N1CCN(C)CC1 | inactive: 98.8%
52 | CCOC(=O)C1C(=O)C=C(/C=C/c2ccc(N(C)C)cc2)CC1c1ccccc1 (stereo not drawn) | inactive: 102%
53 | NC(=O)NC(=O)CSc1ccccc1 | inconclusive: 124%
54 | COc1ccc(NC(=O)c2ccc(S(=O)(=O)N3CCOCC3)o2)cc1 | inconclusive: 151%
55 | CCCCN(C(=O)COc1ccc(C)cc1OC)c1c(N)n(CCC)c(=O)[nH]c1=O | inconclusive: 120%
56 | O=C(O)CSc1ncnc2c1sc1nc(-c3ccccc3)c3c(c12)CCC3 | inconclusive: 94.8%
57 | Nc1ccc(C(=O)C(=O)c2ccc(N)cc2)cc1 | inconclusive: 113%
58 | CCN1CCN(Cc2ccc(NC(=O)c3ccc(C)c(NC(=O)C[C@@H]4NC(=O)[C@H](Cc5ccccc5)NC4=O)c3)cc2C(F)(F)F)CC1 | inconclusive: 106%
59 | CN1CCCN(S(=O)(=O)c2cccc(Cl)c2Cl)CC1 | inconclusive: 115%
60 | CC(O)CNCc1ccccc1C(F)(F)F (stereo not drawn) | inactive: 102%
61 | CCOC(=O)c1cccc(NC(=O)c2cnc3ccccc3n2)c1 | inactive: 97.3%
62 | O=c1c(Cl)c(NCc2ccc(F)cc2)cnn1C12CC3CC(CC(C3)C1)C2 | inactive: 103%
63 | COc1cc(/C=C2\SC(c3ccccc3)=NC2=O)cc(Cl)c1O | inconclusive: 102%
64 | Cc1nc2sc(C(c3ccc(Cl)cc3)N3CCN(CCO)CC3)c(O)n2n1 (stereo not drawn) | inconclusive: 140%
65 | COc1cc(/C=N/NC2=NCCCCC2)ccc1O | inconclusive: 99.7%
66 | CC1(C(=O)O)CCC(C(=O)N2CCCCC2)C1(C)C (stereo not drawn) | inactive: 97.9%
67 | Cc1nc2c(-c3ccc(F)cc3)cnn2c2c1CCC2 | inactive: 101%
68 | COc1ccc(/C=C/c2nnc(NC(=O)c3ccco3)s2)cc1 | inconclusive: 92.9%
69 | O=C(NCc1cccnc1)C(=O)NCC1OCCN1S(=O)(=O)c1cc(F)ccc1F (stereo not drawn) | inconclusive: 550%
70 | CCC/C(O)=C1\C(=O)CCCC1=NCCc1c(C)[nH]c2ccccc12 | inconclusive: 112%
71 | Nc1n[nH]c(CO)n1 | inconclusive: -300%
72 | Cc1nn(-c2ccccc2)c(OC(=O)c2cccs2)c1S(=O)(=O)c1ccc([N+](=O)[O-])cc1 | inactive: 95.5%

Row | Structure (SMILES) | binding response (% of control)
73 | CN(C)/C=N/c1c(C#N)cnn1-c1ccc(C(F)(F)F)cn1 | inactive: 70.1%
74 | COc1ccc(OC)c2sc(NC(=O)C3=COCCO3)nc12 | inactive: 105%
75 | O=C(O)C1Cc2ccccc2CN1S(=O)(=O)c1ccccc1 (stereo not drawn) | inconclusive: 98.2%
76 | C=CCn1c(=S)sc2c(=O)[nH]cnc21 | inconclusive: 91.7%
77 | CCOC(=O)CC1C(=O)NCCN1c1nc2c(C)cccn2c(=O)c1/C=C1\SC(=S)N(CC(C)C)C1=O (stereo not drawn) | inconclusive: 66.9%
78 | Cc1nc2n[nH]c(N)c2c2c1CCCC2 | inconclusive: 129%
79 | CCOc1cc(/C=C(/NC(C)=O)C(=O)O)cc(Cl)c1OCc1cccc(Br)c1 | inconclusive: 112%
80 | NS(=O)(=O)c1ccc(NC(=O)COC(=O)COc2cccc(C(F)(F)F)c2)cc1 | inconclusive: 129%
81 | O=C(N=Nc1c(O)[nH]c2ccc(F)cc12)C1COc2ccccc2O1 (stereo not drawn) | inconclusive: 260%
82 | O=S(=O)(c1ccccc1Oc1ccc(Cl)cc1Cl)N1CCCCC1 | inconclusive: 104%
83 | Cc1cc(=O)oc2cc(O)c(N=Nc3ccccc3)cc12 | inconclusive: 73.8%
84 | COc1cccc(CN(C)CC(=O)NNC(=O)c2ccc(Cl)cc2)c1 | inactive: 75.7%
85 | CN(C)c1ccc(/C=N/O)cc1 | inconclusive: 96.1%
86 | O=C(O)c1ccc(CSc2ncnc3c2cnn3Cc2ccccc2)cc1 | inconclusive: 88.5%
87 | CCn1c(=O)cc(SCC(=O)Nc2cccc(C)n2)c2ccccc21 | inactive: 109%
88 | COc1ccc(C2CC2C(C)=O)cc1 (stereo not drawn) | inconclusive: 90.4%
89 | Cc1cc(NC(=O)CCCN2C(=O)c3cccnc3C2=O)ccc1Br | inconclusive: 95.1%
90 | COC(C[C@@H](O)CC(=O)[C@@H](C)OCc1ccccc1)OC | inconclusive: 98.6%
91 | Cc1cc(C)n2c(C)nnc2c1 | inconclusive: 101%
92 | CN(C)S(=O)(=O)c1cccc(-c2nnc(SCCNCCO)n2-c2ccc(F)cc2)c1 | inconclusive: 109%
93 | CC(C)c1ccc(NC(=S)NC2CC3C=CC2C3)cc1 (stereo not drawn) | inconclusive: 92.1%
